The other results are listed elsewhere or left out. Most values lie within the scatter of the assay; repeated measurements hardly agree. Square brackets hold non-standard residues; d marks the D form. Peptide text beside a SMILES is read from it. * marks the point of attachment. NHCH2CH2OH = OCCN*; For = O=C*

The chains behind the UniProt entries cited, without tags or fusion partners.
UniProt Q15717, whole entry: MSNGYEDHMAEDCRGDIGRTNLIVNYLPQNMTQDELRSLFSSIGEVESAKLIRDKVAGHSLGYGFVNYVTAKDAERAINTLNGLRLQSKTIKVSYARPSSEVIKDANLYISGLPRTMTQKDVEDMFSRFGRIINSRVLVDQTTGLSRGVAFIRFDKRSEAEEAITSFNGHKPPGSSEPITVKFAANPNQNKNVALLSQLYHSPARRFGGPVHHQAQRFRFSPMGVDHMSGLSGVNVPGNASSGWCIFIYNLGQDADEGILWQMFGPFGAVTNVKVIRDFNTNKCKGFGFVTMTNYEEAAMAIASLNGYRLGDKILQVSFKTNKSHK

This experiment has as its target HuR (ELAVL1) - TNFalpha ARE RNA complex (UniProt Q15717). Briefly: AlphaScreen HuR-RNA complex signal Z-score relative to positive controls (secondary screen) (Z-score (SD units of positive control)); higher = more complex signal. To be noted: screen stage: secondary re-screen. (Bead proximity is the source of the signal in Alpha formats.)
Regarding `N[C@H]1C(O)O[C@H](CO)[C@@H](O)[C@@H]1O` (stereo not given in full), the “AlphaScreen HuR-RNA complex signal Z-score” value was 0.357.
Then `CC(C)C[C@@H](NC(=O)[C@H](C)NC(=O)CNC(=O)[C@@H](NC=O)C(C)C)C(=O)N[C@@H](C)C(=O)N[C@@H](C(=O)N[C@H](C(=O)N[C@H](C(=O)N[C@@H](Cc1c[nH]c2ccccc12)C(=O)N[C@H](CC(C)C)C(=O)N[C@@H](Cc1c[nH]c2ccccc12)C(=O)N[C@H](CC(C)C)C(=O)N[C@@H](Cc1c[nH]c2ccccc12)C(=O)N[C@H](CC(C)C)C(=O)N[C@@H](Cc1c[nH]c2ccccc12)C(=O)NCCO)C(C)C)C(C)C)C(C)C` (For-VGA[dL]A[dV]VVW[dL]W[dL]W[dL]W-NHCH2CH2OH), with 1.03.
In the case of `OCCN1C[C@H](O)[C@@H](O)[C@H](O)[C@H]1CO`, the “AlphaScreen HuR-RNA complex signal Z-score” value was 0.754.
Under `NS(=O)(=O)c1cc(C(=O)O)c(NCc2ccco2)cc1Cl` stands 1.17; under `OC(CCN1CCCCC1)(c1ccccc1)C1CC2C=CC1C2` (stereo not given), 0.544.
Consider `Clc1ccc2c(c1)CCc1cccnc1C2=C1CCNCC1`, for which the “AlphaScreen HuR-RNA complex signal Z-score” value turned out to be 0.811.
`CC(C(=O)O)c1ccc(-c2ccccc2)c(F)c1` (stereo not given): the “AlphaScreen HuR-RNA complex signal Z-score” value is 0.937.
Turning to `Cc1cc(C2CCCCC2)n(O)c(=O)c1`, the “AlphaScreen HuR-RNA complex signal Z-score” value was 0.675.
For `Oc1c(I)cc(I)c2cccnc12`, the “AlphaScreen HuR-RNA complex signal Z-score” value came to 1.22.
As to `CCN(CC)CCCC(C)Nc1ccnc2cc(Cl)ccc12` (stereo not given), the “AlphaScreen HuR-RNA complex signal Z-score” value was 0.731.
Under `COc1cc(NC(C)CCCN)c2ncccc2c1` (stereo not given) stands 3.29; under `Cc1ccnc(NS(=O)(=O)c2ccc(N)cc2)n1`, 1.1; under `CN(C)CCCN1c2ccccc2CCc2ccccc21`, 0.979.
`CO[C@H]1O[C@H](CO)C(O[C@@H]2OC(C(=O)O)[C@@H](O[C@H]3O[C@H](COS(=O)(=O)O)C(O[C@@H]4OC(C(=O)O)[C@@H](O[C@H]5O[C@H](CO)C(O[C@@H]6OC(C(=O)O)[C@@H](O[C@H]7O[C@H](COS(=O)(=O)O)C(O[C@@H]8OC(C(=O)O)=C[C@H](O)C8OS(=O)(=O)O)[C@H](O)[C@H]7NC(C)=O)[C@H](O)[C@H]6O)[C@H](O)[C@H]5NC(C)=O)[C@H](O)[C@H]4O)[C@H](O)[C@H]3NC(C)=O)[C@H](O)[C@H]2O)[C@H](O)[C@H]1NC(C)=O` (stereo not given in full): the “AlphaScreen HuR-RNA complex signal Z-score” value turned out to be 1.67.
Consider `CC1=C(C(=O)O)N2C(=O)[C@@H](NC(=O)[C@H](N)C3=CCC=CC3)[C@H]2SC1`, for which the “AlphaScreen HuR-RNA complex signal Z-score” value is -0.306.
Under `Cc1ccc(/C(=C\CN2CCCC2)c2ccccn2)cc1` stands 1.25; under `CN(C)[C@@H]1C(O)=C(C(N)=O)C(=O)[C@@]2(O)C(O)=C3C(=O)c4c(O)ccc(Cl)c4[C@@H](O)[C@H]3C[C@@H]12`, 1.46; under `CO[C@@]1(NC(=O)C(C(=O)O)c2ccc(O)cc2)C(=O)N2C(C(=O)O)=C(CSc3nnnn3C)CO[C@@H]21` (stereo not given in full), -0.104.
Regarding `CCOC(=O)CCC(=O)O[C@H]1[C@H](O[C@@H]2[C@@H](C)[C@H](O[C@H]3C[C@@](C)(OC)[C@@H](O)[C@H](C)O3)[C@@H](C)C(=O)O[C@H](CC)[C@@](C)(O)[C@H](O)[C@@H](C)C(=O)[C@H](C)C[C@@]2(C)O)O[C@H](C)C[C@@H]1N(C)C`, the “AlphaScreen HuR-RNA complex signal Z-score” value was found to be 1.14.
Regarding `CN[C@@H]1[C@H](O[C@H]2[C@H](O[C@H]3[C@H](O)[C@@H](O)[C@H](NC(=N)N)[C@@H](O)[C@@H]3NC(=N)N)O[C@@H](C)[C@]2(O)CO)O[C@@H](CO)[C@H](O)[C@H]1O`, the “AlphaScreen HuR-RNA complex signal Z-score” value was determined as 0.331.

Values taken from the supplement of paper PMC3741180, “A Novel High Throughput Biochemical Assay to Evaluate the HuR Protein-RNA Complex Formation” (PLoS ONE, 2013).
